# According to PubChem BioAssay:
# The list shows a part of the results. Potency and affinity values are given separately. Entries without a call are filed as inconclusive in the source.
# Key:
# [1] = Polyglutamine toxicity reduction dose response, whole organism Drosophila SCA1 model (AID 1595); settings: at 1 µM, stronger effect = higher value
# PubChem AID 1597 = settings: Drosophila SCA1 polyglutamine model, at 1 µM, stronger effect = higher value
Compound,suppression of toxicity [1],suppression of toxicity (PubChem AID 1597)
CC(=O)OCC1=C(C(=O)O)N2C(=O)[C@@H](NC(=O)Cc3cccs3)[C@H]2SC1,5.71,7.14
Cc1cc(N)c2ccccc2[n+]1CCCCCCCCCC[n+]1c(C)cc(N)c2ccccc21,1.43,2.15
C[C@]12CCC3c4ccc(O)cc4CCC3C1CC[C@@H]2OC(=O)CCC1CCCC1 (some centres undefined),0,1.43
CC(=O)Oc1ccc2c(c1)CCC1C2CCC2(C)C(=O)CCC12 (centres undefined),2.85,0
CN(C)CCOC(c1ccccc1)c1ccccc1 (tested in a mixture with another compound),12.9,15
O=C1c2ccc(O)c(O)c2C(=O)c2c(O)ccc(O)c21,5.71,5.71
CCCC(=O)Nc1ncnc2c1ncn2C1O[C@@H]2COP(=O)(O)O[C@H]2[C@H]1OC(=O)CCC (some centres undefined),4.29,4.29
NC(N)=NS(=O)(=O)c1ccc(N)cc1,1.43,2.15
COc1cc(OC)c2ccc(=O)oc2c1,8.57,2.88
CCn1nc(C(=O)O)c(=O)c2cc3c(cc21)OCO3,0,4.29
COC(=O)Nc1nc2ccc(Sc3ccccc3)cc2[nH]1,2.85,7.14
Nc1cc(-c2ccncc2)c[nH]c1=O,5.71,6.43
O=NN(CCCl)C(=O)NCCCl,4.29,6.43
CN(C)CCCN1c2ccccc2CCc2ccccc21,1.43,2.85
O=C1NCC2(CCN(CCc3ccccc3)CC2)O1,5.71,5.71
CNC[C@@H](O)c1ccc(O)c(O)c1,14.3,8.57
COc1cnc(NS(=O)(=O)c2ccc(N)cc2)nc1,1.43,1.43

# An excerpt of these results, bar-delimited.
Compound | suppression of toxicity [1] | suppression of toxicity (PubChem AID 1597)
NC(N)=NS(=O)(=O)c1ccc(N)cc1 | 1.43 | 2.15
COc1cc(OC)c2ccc(=O)oc2c1 | 8.57 | 2.88
CCn1nc(C(=O)O)c(=O)c2cc3c(cc21)OCO3 | 0 | 4.29
COC(=O)Nc1nc2ccc(Sc3ccccc3)cc2[nH]1 | 2.85 | 7.14
Nc1cc(-c2ccncc2)c[nH]c1=O | 5.71 | 6.43
